# Results published in PubChem BioAssay AID2685 (National Center for Advancing Translational Sciences (NCATS), 2010).
# Some of the results follow. Shown are side measurements of this screen, not its main read-out; they come without a call. Most of these compounds were active or inconclusive in the main read-out, so they are no random draw. The note in brackets gives the kind of curve behind each potency; many fits are weak.
# Assay: qHTS Assay for Lipid Storage Modulators in Drosophila S3 Cells;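 on cell number change: cells counted by Cell Tracker Red CMTPX staining in the red channel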
# Settings: BODIPY lipid droplet fluorescence, 18-24 h; for cell number change: measured here: cell count max response, cells fed with added oleic acid
# Summary of the method: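 Laser-scanning cytometry quantifies lipid droplet accumulation (500–530 nm total intensity; droplet/cell object ratio) in oleic acid-fed (400 uM added) Drosophila S3 cells treated with a concentration series. 20 uM Triacsin C defined 100% inhibition.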
# [1] = measured here: cell number channel AC50, cells fed with added oleic acid
# [2] = measured here: lipid fluorescence (Fed channel) AC50, cells fed with added oleic acid
Compound,cell number change [%],AC50 [1],AC50 [2]
Cc1sc2nc(SCC(=O)NCc3ccco3)n(Cc3ccccc3)c(=O)c2c1C,-28.5,–,–
CC(=O)Nc1coc2ccc(Br)cc12,18.1,"0.366 µM [rising, full curve, poor fit]",–
O=C(C[n+]1ccccc1)N/N=C/c1cc(Br)cc(Br)c1O,-26.1,–,"23.1 µM [falling, single point]"
CCN(CC(=O)NCc1ccc(Cl)cc1)C(=O)CSc1cc(C)ccc1C,111,"14.6 µM [rising, partial curve]",–
O=C(Nc1ccc2c(c1)OCCO2)C1CC(c2ccccc2Cl)=NO1 (stereo not given),-2.13,–,"0.82 µM [falling, full curve]"
CCC(C(=O)N1CCOCC1)n1nc(C)n2c(cc3cc(C)ccc32)c1=O (stereo not given),-11.1,–,"29.1 µM [falling, single point]"
CC(=O)c1ccc(N2Cc3ccccc3/C2=N\C(=O)Nc2ccc(Cl)cc2)cc1,14.5,–,–
COc1ccc(NC(=O)c2ccc(CNS(=O)(=O)c3cccc(OC)c3)cc2)cc1,-18.1,–,–
COc1cccc(NC(=O)CN(C)C(=O)c2cc3c(s2)CCC(C)C3)c1 (stereo not given),38.3,"20.6 µM [rising, single point]","18.4 µM [rising, single point]"
COc1ccc(NS(=O)(=O)c2ccc(N3CCOCC3)c(NC(=O)C(C)C)c2)cc1,-18.5,"0.651 µM [rising, single point]","0.58 µM [rising, partial curve, poor fit]"
C/C(=N\NC(=O)c1ccccc1O)c1cccs1,–,"0.651 µM [rising, single point]",–
CCCC(C)NC(=O)Cc1ccc(S(=O)(=O)N2CCOCC2)s1 (stereo not given),19.5,–,"6.51 µM [falling, single point]"
COc1ccc(NC(C)=O)c2nc(C)c(C)nc12,-8.48,–,"2.06 µM [rising, single point]"
CN1C(=O)C(C)(C)N(C(=O)c2cccc([N+](=O)[O-])c2)c2ccccc21,-2.03,–,"6.51 µM [falling, single point]"
Cc1sc2nc(CSC(C)C(=O)Nc3ccc(Cl)cn3)[nH]c(=O)c2c1C (stereo not given),-3.89,–,–
Cc1cccc(NC(=O)CCS(=O)(=O)c2cc3c(cc2Cl)NC(=O)CO3)c1,-21.2,–,"16.4 µM [rising, single point]"
Cc1cscn1,15,–,"0.103 µM [falling, single point]"
O=C(CN(C(=O)C1CSC(=O)C1)c1cccc(F)c1)NC1CCCC1 (stereo not given),-38,–,–
CCN(CC)c1nc(Nc2ccc(Cl)cc2)nc(OCC#N)n1,33.4,"5.8 µM [rising, partial curve, poor fit]",–
N/C(CCN1CCCCC1)=N/O,-9.63,–,"29.1 µM [falling, single point]"
Cc1cc2c(c(=O)o1)C(c1ccc([N+](=O)[O-])o1)C(C#N)=C(N)O2 (stereo not given),20.7,–,–

Compound,cell number change [%],AC50 [1],AC50 [2]
CCOc1ccccc1C(=O)NCc1ccc2c(c1)OCO2,12,–,"0.0259 µM [rising, full curve, poor fit]"
COc1ccc(C(=O)Oc2c(C)occc2=O)cc1OC,15.5,–,"14.6 µM [rising, single point]"
O=C(NCc1ccc2c(c1)OCO2)C12CN(Cc3ccccc3)CC1C(c1cccc([N+](=O)[O-])c1)=NO2 (stereo not given),–,"0.517 µM [rising, single point]",–
O=C(Nc1cccc(C(F)(F)F)c1)c1ccco1,–,–,"5.17 µM [falling, partial curve]"
Cc1ccc2c(Cl)c(C(=O)Nc3cccnc3)sc2c1,-19.6,–,"18.4 µM [falling, single point]"
Cc1ccccc1C(=O)Oc1cc(N)n(S(C)(=O)=O)n1,-3.56,"0.092 µM [rising, single point]",–
COc1ccccc1NC(=O)CSc1nnc(COc2ccc(Cl)cc2)n1Cc1ccco1,-2.39,–,"29.1 µM [rising, single point]"
CCN(C(=O)c1cccs1)c1nc(-c2ccc(OC)cc2)cs1,39.5,"4.61 µM [rising, full curve, poor fit]",–
CCOC(=O)CSC1=C(C#N)C(c2sccc2C)C(C(C)=O)=C(C)N1 (stereo not given),29.8,–,"1.46 µM [rising, full curve, poor fit]"
COCCCNC(=O)c1ccc(Cn2c(=O)c3ccccc3n(Cc3cc(C)ccc3C)c2=O)cc1,-29.5,–,"29.1 µM [rising, single point]"
O=C(NCCCN1CCN(c2cccc(Cl)c2)CC1)C1(S(=O)(=O)c2ccc(Cl)cc2)CC1,31,"23.1 µM [rising, single point]",–
COc1cc(CN(CCc2c(C)[nH]c3ccc(C)cc23)C(=S)NC(C)(C)C)cc(OC)c1OC,-31.5,"29.1 µM [falling, single point]","29.1 µM [falling, single point]"
CCCCCCC#Cc1ccc2c(c1)COc1c3ccccc3nn1-2,35.5,–,"2.91 µM [rising, partial curve]"
Cc1ccc(S(=O)(=O)N2CCC(C)CC2)cc1C(=O)NCc1ccccn1,19.8,–,"29.1 µM [rising, single point]"
CCOC(=O)c1c(NC(=O)CN2CCCCC2)sc2c1CCCC2O (stereo not given),-55.1,"23.1 µM [falling, partial curve]","3.26 µM [rising, partial curve]"
CCOC(=O)C(=O)Nc1ccccc1C#N,–,–,"0.92 µM [rising, full curve, poor fit]"
CSCC(=O)N1CCc2ccc(NC(=O)c3ccccc3Cl)cc2C1,-14.6,–,–
CCCC(=O)Nc1ccc(NC(=O)c2cccc(OC)c2)cn1,-13.3,–,–
CN1CCN(c2ccc(NC(=S)NC(=O)c3cccc4c(Br)cccc34)cc2)CC1,14.3,–,"0.651 µM [rising, single point]"
CCCOc1ccc(C(=O)NNC(=O)CCNC(=O)c2ccccc2Cl)cc1OC,37.2,"14.6 µM [rising, single point]","20.6 µM [rising, partial curve]"

# 2 compounds from above with just AC50 [2] and cell number change [%].
Compound,AC50 [2],cell number change [%]
Cc1ccc(S(=O)(=O)N2CCC(C)CC2)cc1C(=O)NCc1ccccn1,"29.1 µM [rising, single point]",19.8
CCOC(=O)c1c(NC(=O)CN2CCCCC2)sc2c1CCCC2O (stereo not given),"3.26 µM [rising, partial curve]",-55.1
